Data from article PMC10759177.
Where a chain is given by its changes, count along the chain named. No constants are given. Whether binding was seen depends on the method and setting. Binding seen in cells or lysates may run through a third protein. Some results given as binding are weak or reduced against the parent protein; the word gives no strength. Where a sequence is shown, tags or fusion partners need not be part of it.

The chains behind the UniProt entries cited, without tags or fusion partners.
UniProt Q80TN5: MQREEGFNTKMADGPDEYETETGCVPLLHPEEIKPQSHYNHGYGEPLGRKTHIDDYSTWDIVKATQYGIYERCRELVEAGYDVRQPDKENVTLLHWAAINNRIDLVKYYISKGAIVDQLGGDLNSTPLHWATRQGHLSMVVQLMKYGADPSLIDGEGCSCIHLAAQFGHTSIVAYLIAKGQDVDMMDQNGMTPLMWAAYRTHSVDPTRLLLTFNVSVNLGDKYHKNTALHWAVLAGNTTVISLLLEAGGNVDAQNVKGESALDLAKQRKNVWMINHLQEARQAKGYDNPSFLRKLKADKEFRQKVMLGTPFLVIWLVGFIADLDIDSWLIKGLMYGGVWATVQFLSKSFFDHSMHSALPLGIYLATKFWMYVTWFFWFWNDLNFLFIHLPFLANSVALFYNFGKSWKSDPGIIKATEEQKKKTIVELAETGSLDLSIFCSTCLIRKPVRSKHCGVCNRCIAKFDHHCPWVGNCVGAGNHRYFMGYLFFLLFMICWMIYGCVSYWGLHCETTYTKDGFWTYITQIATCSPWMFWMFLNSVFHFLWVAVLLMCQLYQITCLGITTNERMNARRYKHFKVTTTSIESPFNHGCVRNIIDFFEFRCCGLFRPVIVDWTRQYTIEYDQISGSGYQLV

Key:
[1] = molecular target: T1, wild-type mouse diacylglycerol kinase-ε with a double Myc tag at the C terminus (mouse) (UniProt Q9R1C6); test: co-IP; HEK293 cells coexpressing mDGKε-Myc variant and zDHHC17-HA (24 h); lysis in 150 mM NaCl, 20 mM Tris-HCl pH 7.4, 1% NP-40, 1 mM EDTA, 1 mM DTT; mDGKε-Myc immunoprecipitated on Myc-Trap Agarose, 3 h at 4°C; zDHHC17-HA revealed by immunoblotting
T1 sequence (chain, S-palmitoylated at Cys38 in a fraction of the molecules): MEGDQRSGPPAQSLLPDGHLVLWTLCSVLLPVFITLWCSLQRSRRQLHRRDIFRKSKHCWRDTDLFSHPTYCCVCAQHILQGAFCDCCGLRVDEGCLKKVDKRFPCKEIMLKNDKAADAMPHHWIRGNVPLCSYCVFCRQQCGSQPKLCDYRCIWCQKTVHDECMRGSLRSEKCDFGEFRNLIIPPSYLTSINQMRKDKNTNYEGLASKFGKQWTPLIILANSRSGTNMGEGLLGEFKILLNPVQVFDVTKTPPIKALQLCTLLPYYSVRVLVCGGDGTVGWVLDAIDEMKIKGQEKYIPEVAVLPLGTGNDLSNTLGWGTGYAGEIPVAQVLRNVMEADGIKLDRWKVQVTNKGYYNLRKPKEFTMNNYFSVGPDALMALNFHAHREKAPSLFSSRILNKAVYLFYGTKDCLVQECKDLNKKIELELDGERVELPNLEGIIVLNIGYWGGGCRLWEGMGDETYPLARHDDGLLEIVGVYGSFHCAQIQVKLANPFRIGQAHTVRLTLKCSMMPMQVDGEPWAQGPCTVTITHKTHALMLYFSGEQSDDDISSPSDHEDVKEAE

[2] = molecular target: T2, Cys38Ala mouse diacylglycerol kinase-ε with a double Myc tag at the C terminus (mouse) (UniProt Q9R1C6); test: as above
T2 sequence: T1 sequence (chain, S-palmitoylated at Cys38 in a fraction of the molecules) with C38A

binding [1]: binds
binding [2]: binds
Substance: HA-tagged mouse S-acyltransferase zDHHC17 (from UniProt Q80TN5 1-632) (enzyme)
